Measurements reported in PubChem BioAssay AID1671195 (Yale University, 2021)

Assay: 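Genes whose knockdown alters LDL uptake in liver cancer cells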 (primary screen)
Cell system: human Huh7 hepatoma cells
Reagent: siRNA pool against human genes, 18 nM
Time to read-out: about 2 to 2.5 days of knockdown, then 8 h LDL uptake
Challenge: DiI-labelled LDL at 30 µg/ml for 8 h, in lipoprotein-deficient serum medium
Measured: 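Per-cell DiI-LDL intensity by automated imaging; well means scaled to the plate median and given as a robust z-score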
Scale: robust z-score: higher = more LDL uptake after knockdown
Active means: 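Active when two or more replicates show a robust z-score above 2 or below -2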
The whole screen tested about 22,000 reagents; shown is an unselected part. In the full data, about 1,510 (6.9%) got an active call. 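Active includes knockdowns raising or lowering LDL uptake; positive z-scores mean more uptake, negative mean less.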 Reagents against one gene are numbered here. Reagent sequences are not shown.

no.	gene symbol	pool no.	robust z-score, replicate 1	robust z-score, replicate 2	robust z-score, replicate 3	Call
1	CXCL10	1	2.8	0.148	1.46	inactive
2	CITED4	1	-0.227	-0.0463	-0.273	inactive
3	INSIG1	1	0.398	-1.09	-0.174	inactive
4	TTC6	1	0.317	0.925	0.916	inactive
5	TTC6	2	-0.516	-0.674	-0.551	inactive
6	EIF3LP3	1	2.12	1.56	1.78	inactive
7	RAD54B	1	-0.281	-0.916	0.262	inactive
8	RAD54B	2	-0.037	-0.205	-0.761	inactive
9	C14orf181 (retired record)	1	-0.803	-1.17	-1.65	inactive
10	FCGR3A	1	0.0161	0.469	0.455	inactive
11	GDPD5	1	1.61	1.17	0.436	inactive
12	PRL	1	-0.663	-0.337	-0.796	inactive
13	PSMD11	1	-0.829	-0.849	-1.42	inactive
14	FDX2	1	0.689	1.31	1.29	inactive
15	TIPE1	1	-0.838	-0.454	0.135	inactive
16	MNDA	1	-1.21	-1.21	-1.18	inactive
17	PTPRZ1	1	-0.376	0.0473	-0.109	inactive
18	PPP2R5D	1	-0.0995	0.0814	0.238	inactive
19	KIF1C	1	-0.731	0.113	-0.322	inactive
20	LOC440909 (retired record)	1	2.15	1.54	1.44	inactive
21	SYP	1	-0.793	-0.475	-0.593	inactive
22	DEFB128	1	-0.534	0.307	-0.554	inactive
23	NPAS1	1	0.0423	1.85	1.57	inactive
24	OR2M5	1	-0.97	-0.983	-1.71	inactive
25	RIMS4	1	0.0548	-0.528	-0.493	inactive
26	SRRM2	1	0.682	-1.97	0.61	inactive
27	LAT	1	0.0454	0.297	-0.264	inactive
28	LOC441830 (retired record)	1	-1.87	-1.45	-1.22	inactive
29	MAPKAPK3	1	-0.449	-0.308	0.0638	inactive
30	DENND2C	1	1.14	1.02	1.63	inactive
31	GDI2	1	-0.573	0.365	-1.12	inactive
32	TEX46	1	-1.24	-2.4	-1.59	inactive
33	DMWD	1	-0.0555	0.52	-1.22	inactive
34	INPP1	1	0.903	0.27	0.974	inactive
35	NBPF18P	1	0.0126	-0.131	0.297	inactive
36	ICAM3	1	-0.0822	-0.347	-0.0888	inactive
37	SYNE4	1	-0.759	-0.0279	-0.702	inactive
38	KICS2	1	-0.156	0.0713	-0.423	inactive
39	LOC401052 (retired record)	1	-0.361	-0.233	-0.243	inactive
40	PLSCR4	1	-0.586	0.44	0.456	inactive
41	RGS13	1	0.492	0.142	0.09	inactive
42	SRC	1	0.0611	0.369	-0.191	inactive
43	DNAAF6	1	-0.898	0.428	0.269	inactive
44	POP7	1	2.1	2.47	-1.63	active
45	ALPK1	1	-1.65	-1.28	-1.49	inactive
46	MRPS30	1	0.198	0.562	-0.166	inactive
47	LINC02893	1	1.27	0.931	1.43	inactive
48	STAT2	1	-0.894	-0.344	-0.633	inactive
49	FAM111B	1	0.36	0.965	0.374	inactive
50	CTNND2	1	-0.797	0.588	0.612	inactive
51	MS4A4A	1	0.691	-0.72	0.124	inactive
52	TEX261	1	-0.817	0.106	-0.73	inactive
53	SPMIP6	1	-0.145	-0.162	-0.342	inactive
54	LOC389663 (retired record)	1	-0.254	-0.192	0.111	inactive
55	LOC399789 (retired record)	1	-0.0232	-0.964	-0.873	inactive
56	SLCO1A2	1	-2.05	-2.13	-2.25	active
57	SPINK4	1	0.223	-0.451	-0.287	inactive
58	RFESD	1	3.54	2.95	3.16	active
59	ACTR2P2	1	4.08	3.97	2.74	active
60	OR10G7	1	-0.836	-0.862	-0.518	inactive
61	LOC388134 (retired record)	1	0.44	1.17	0.687	inactive
62	DNAH11	1	0.824	0.62	1.56	inactive
63	ZBTB7B	1	-1.53	-1	-1.34	inactive
64	CCDC78	1	-0.326	2.08	1.37	inactive
65	MAGEA9	1	-0.823	-0.232	-0.838	inactive
66	IL26	1	-0.566	-1.74	-1.32	inactive
67	DCAF1	1	-0.0993	0.483	-0.31	inactive
68	ZFAS1	1	-0.0171	0.117	-0.596	inactive

3 entries already listed, ordered by “robust z-score, replicate 2”, highest first:
gene symbol	pool no.	robust z-score, replicate 1	robust z-score, replicate 2	robust z-score, replicate 3	Call
DMWD	1	-0.0555	0.52	-1.22	inactive
INPP1	1	0.903	0.27	0.974	inactive
NBPF18P	1	0.0126	-0.131	0.297	inactive
